The target in one experiment is T1, Flag-Geminin WT (human) (UniProt O75496).
T1 sequence: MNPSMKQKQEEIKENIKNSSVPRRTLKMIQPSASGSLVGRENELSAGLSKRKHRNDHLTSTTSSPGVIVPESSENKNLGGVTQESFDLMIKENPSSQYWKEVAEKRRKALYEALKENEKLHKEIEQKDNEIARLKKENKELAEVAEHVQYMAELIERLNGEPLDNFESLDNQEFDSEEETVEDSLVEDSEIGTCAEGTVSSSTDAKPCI
As to the kind of experiment: co-IP; 293T cells co-transfected with Flag-Geminin (WT or mutant) and SPOP (WT or mutant) (Fig. 1g, 3b, 3d, 3g).

Sequences of proteins named here, by UniProt entry; tags and fusion partners are left off. A change or cut given only in a name is not applied to a line headed by its entry.
UniProt O43791: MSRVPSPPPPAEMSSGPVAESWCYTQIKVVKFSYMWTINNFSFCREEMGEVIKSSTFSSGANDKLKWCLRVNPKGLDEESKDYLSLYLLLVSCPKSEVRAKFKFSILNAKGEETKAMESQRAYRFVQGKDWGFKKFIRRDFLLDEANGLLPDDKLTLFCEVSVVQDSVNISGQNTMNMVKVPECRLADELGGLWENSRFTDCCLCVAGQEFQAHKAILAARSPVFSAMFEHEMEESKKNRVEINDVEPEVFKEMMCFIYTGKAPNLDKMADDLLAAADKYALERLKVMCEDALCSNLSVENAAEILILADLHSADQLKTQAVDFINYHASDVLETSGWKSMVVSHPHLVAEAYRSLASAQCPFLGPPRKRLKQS
UniProt P49736: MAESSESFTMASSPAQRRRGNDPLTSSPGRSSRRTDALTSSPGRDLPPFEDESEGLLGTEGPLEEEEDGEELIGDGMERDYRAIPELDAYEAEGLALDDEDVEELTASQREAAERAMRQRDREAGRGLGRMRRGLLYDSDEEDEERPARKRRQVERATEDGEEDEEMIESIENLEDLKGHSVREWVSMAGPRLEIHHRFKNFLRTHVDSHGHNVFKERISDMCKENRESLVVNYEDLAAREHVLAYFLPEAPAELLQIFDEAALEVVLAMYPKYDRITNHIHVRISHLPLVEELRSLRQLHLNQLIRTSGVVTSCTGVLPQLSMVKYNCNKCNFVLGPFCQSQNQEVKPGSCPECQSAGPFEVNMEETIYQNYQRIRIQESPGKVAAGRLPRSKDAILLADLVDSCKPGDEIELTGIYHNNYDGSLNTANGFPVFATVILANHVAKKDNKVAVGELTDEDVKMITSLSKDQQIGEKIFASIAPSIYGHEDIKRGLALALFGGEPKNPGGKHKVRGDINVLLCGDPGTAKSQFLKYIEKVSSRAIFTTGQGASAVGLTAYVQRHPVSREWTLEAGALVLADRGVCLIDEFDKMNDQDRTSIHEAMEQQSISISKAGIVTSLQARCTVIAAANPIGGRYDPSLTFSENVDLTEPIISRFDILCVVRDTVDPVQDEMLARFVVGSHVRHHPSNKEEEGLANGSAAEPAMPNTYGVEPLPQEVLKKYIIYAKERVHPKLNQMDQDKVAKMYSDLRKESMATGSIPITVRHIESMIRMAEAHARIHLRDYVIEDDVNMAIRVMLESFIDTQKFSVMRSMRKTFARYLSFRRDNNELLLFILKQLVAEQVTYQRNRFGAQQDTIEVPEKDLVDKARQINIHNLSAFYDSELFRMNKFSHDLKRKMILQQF

The target in a further experiment is T2, GST-Geminin (human) (UniProt O75496).
T2 sequence: T1 sequence
As to the kind of experiment: pull-down; in vitro translated protein with GST-Geminin purified from E. coli (Supplementary Fig. 1l, 3l); only the target purified.

Experiment [1] addresses T3, Geminin mutant lacking the Cdt1-binding region (amino acids 82-160) (human) (UniProt O75496).
T3 sequence: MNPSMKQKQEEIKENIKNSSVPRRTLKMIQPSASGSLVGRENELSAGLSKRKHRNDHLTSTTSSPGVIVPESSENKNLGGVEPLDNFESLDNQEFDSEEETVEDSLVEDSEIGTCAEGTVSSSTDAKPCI
As to the kind of experiment: co-IP; Geminin mutant lacking residues 82-160 (Supplementary Fig. 1k); cells and tags not shown.

For experiment [2], the target named is T4, Flag-Geminin S202F mutant (human) (UniProt O75496).
T4 sequence: T1 sequence with S202F
Briefly: co-IP; 293T cells co-transfected with Flag-Geminin (WT or mutant) and SPOP (WT or mutant) (Fig. 1g, 3b, 3d, 3g).

The target in experiment [3] is T5, Geminin SBC deletion mutant (deletion of 199VSSST203) (human) (UniProt O75496).
T5 sequence: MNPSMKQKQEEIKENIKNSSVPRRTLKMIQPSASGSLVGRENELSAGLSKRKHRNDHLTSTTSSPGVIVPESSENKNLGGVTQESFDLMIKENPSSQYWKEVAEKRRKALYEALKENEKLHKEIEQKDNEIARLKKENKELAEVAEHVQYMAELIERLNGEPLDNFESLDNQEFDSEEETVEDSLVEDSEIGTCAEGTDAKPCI
The description is as above.

The target in experiment [4] is endogenous SPOP (human (endogenous in PC-3)) (UniProt O43791). As to the kind of experiment: co-IP; endogenous proteins in PC-3 cells (Fig. 1e).
The next experiment concerns the target Myc-SPOP WT (human) (UniProt O43791). Briefly: co-IP; 293T cells transfected with Myc-SPOP; endogenous partners detected by blot (Fig. 1d).
Experiment [5] addresses T6, endogenous Cdt1 (human (endogenous in 293T, PC-3, BPH1, DU145)) (UniProt Q9H211).
T6 sequence: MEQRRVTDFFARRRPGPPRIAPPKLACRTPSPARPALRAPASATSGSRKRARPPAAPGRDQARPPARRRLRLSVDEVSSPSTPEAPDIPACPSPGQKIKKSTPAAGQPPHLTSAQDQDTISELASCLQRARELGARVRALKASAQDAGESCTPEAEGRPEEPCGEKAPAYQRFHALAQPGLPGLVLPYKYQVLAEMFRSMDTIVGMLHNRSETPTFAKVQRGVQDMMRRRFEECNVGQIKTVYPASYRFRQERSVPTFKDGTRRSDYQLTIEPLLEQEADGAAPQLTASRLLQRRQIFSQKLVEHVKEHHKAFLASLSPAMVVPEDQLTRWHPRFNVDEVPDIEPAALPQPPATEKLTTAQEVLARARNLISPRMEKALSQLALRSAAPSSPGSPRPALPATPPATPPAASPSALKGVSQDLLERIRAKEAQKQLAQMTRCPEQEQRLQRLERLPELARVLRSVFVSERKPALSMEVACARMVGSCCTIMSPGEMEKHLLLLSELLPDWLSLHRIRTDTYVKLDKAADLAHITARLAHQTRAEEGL
As to the kind of experiment: co-IP; PC-3 cells infected with lentivirus for shRNAs, WT or mutated Geminin, or SPOP mutants (Fig. 4a, b).

The target of experiment [6] is T7, Cdt1 (co-IPs of Supplementary Fig. 1k and 3c) (human) (UniProt Q9H211).
T7 sequence: T6 sequence
As to the kind of experiment: co-IP; Geminin WT and Lys100/Lys127 mutants with Cdt1 (Supplementary Fig. 3c); cells and tags not shown.

Experiment [7] addresses T8, ectopically expressed Cdt1 (human) (UniProt Q9H211).
T8 sequence: T6 sequence
As to the kind of experiment: co-IP; ectopically expressed Geminin and Cdt1, with transient expression of SPOP mutants F102C and F133V (Supplementary Fig. 3a).

The target of experiment [8] is T6, endogenous Cdt1 (human (endogenous in 293T, PC-3, BPH1, DU145)). Briefly: co-IP; endogenous proteins in BPH1 and DU145 cells with stable expression of SPOP F133V (Supplementary Fig. 3b).

Numbering of substitutions follows the chain as printed. Numbers in names are those of the source. Results are given in words; binding and its absence hold for the method and conditions named. In cells and extracts the contact can be indirect. Some binding calls cover weakened binding; strength is not graded here. For some assays here: Where a sequence is shown, tags or fusion partners need not be part of it.

SPOP F133V (from UniProt O43791 1-374): in the experiment with Flag-Geminin WT (human), the binding result is reported as “no binding”. For the molecule “in vitro translated MCM2 protein (from UniProt P49736 1-904)”, in the experiment with GST-Geminin (human), the binding entry is recorded as “no binding”. In the case of SPOP F102C (from UniProt O43791 1-374), the binding entry in the experiment with Flag-Geminin WT (human) is listed as “no binding”. Take Myc-SPOP WT (from UniProt O43791 1-374): the binding entry is “binds” in [1], “no binding” in [2], “binds” with Flag-Geminin WT (human) and “no binding” in experiment [3].

Consider “in vitro translated SPOP (from UniProt O43791 1-374)”, for which the binding entry with GST-Geminin (human) is given as “binds”.

B1: endogenous Cdt1 (protein, UniProt Q9H211 1-546)
chain: T6 sequence
Consider B1, for which the binding result (in experiment [4]; in the experiment with Myc-SPOP WT (human)) was “binds” throughout.

B2: endogenous CDC6 (protein, UniProt Q99741 1-560)
chain: MPQTRSQAQATISFPKRKLSRALNKAKNSSDAKLEPTNVQTVTCSPRVKALPLSPRKRLGDDNLCNTPHLPPCSPPKQGKKENGPPHSHTLKGRRLVFDNQLTIKSPSKRELAKVHQNKILSSVRKSQEITTNSEQRCPLKKESACVRLFKQEGTCYQQAKLVLNTAVPDRLPAREREMDVIRNFLREHICGKKAGSLYLSGAPGTGKTACLSRILQDLKKELKGFKTIMLNCMSLRTAQAVFPAIAQEICQEEVSRPAGKDMMRKLEKHMTAEKGPMIVLVLDEMDQLDSKGQDVLYTLFEWPWLSNSHLVLIGIANTLDLTDRILPRLQAREKCKPQLLNFPPYTRNQIVTILQDRLNQVSRDQVLDNAAVQFCARKVSAVSGDVRKALDVCRRAIEIVESDVKSQTILKPLSECKSPSEPLIPKRVGLIHISQVISEVDGNRMTLSQEGAQDSFPLQQKILVCSLMLLIRQLKIKEVTLGKLYEAYSKVCRKQQVAAVDQSECLSLSGLLEARGILGLKRNKETRLTKVFFKIEEKEIEHALKDKALIGNILATGLP
Regarding B2, the binding entry in experiment [5] was “binds”.

B3: endogenous ORC2 (protein, UniProt Q13416 1-577)
chain: MSKPELKEDKMLEVHFVGDDDVLNHILDREGGAKLKKERAQLLVNPKKIIKKPEYDLEEDDQEVLKDQNYVEIMGRDVQESLKNGSATGGGNKVYSFQNRKHSEKMAKLASELAKTPQKSVSFSLKNDPEITINVPQSSKGHSASDKVQPKNNDKSEFLSTAPRSLRKRLIVPRSHSDSESEYSASNSEDDEGVAQEHEEDTNAVIFSQKIQAQNRVVSAPVGKETPSKRMKRDKTSDLVEEYFEAHSSSKVLTSDRTLQKLKRAKLDQQTLRNLLSKVSPSFSAELKQLNQQYEKLFHKWMLQLHLGFNIVLYGLGSKRDLLERFRTTMLQDSIHVVINGFFPGISVKSVLNSITEEVLDHMGTFRSILDQLDWIVNKFKEDSSLELFLLIHNLDSQMLRGEKSQQIIGQLSSLHNIYLIASIDHLNAPLMWDHAKQSLFNWLWYETTTYSPYTEETSYENSLLVKQSGSLPLSSLTHVLRSLTPNARGIFRLLIKYQLDNQDNPSYIGLSFQDFYQQCREAFLVNSDLTLRAQLTEFRDHKLIRTKKGTDGVEYLLIPVDNGTLTDFLEKEEEEA
On to B3, for which, in [5], the binding result is “binds”.

B4: Flag-Geminin WT (protein, UniProt O75496 1-209)
chain: T1 sequence
For B4, the binding result in experiment [6] and in experiment [7] was “binds” in each case.

B5: endogenous Geminin (protein, UniProt O75496 1-209)
chain: T1 sequence
As for B5, the binding entry (in experiment [4]; in the experiment with Myc-SPOP WT (human); in experiment [5]; in experiment [8]) was “binds” in each case.

B6: Geminin K100R/K127R mutant (protein, UniProt O75496 1-209)
chain: T1 sequence with K100R, K127R
B6: the binding entry in experiment [6] is on record as “binds”.

B7: Geminin K100R mutant (protein, UniProt O75496 1-209)
chain: T1 sequence with K100R
Take B7: in [6], the binding result is “binds”.

The values are drawn from publication PMC8486843, “SPOP mutation induces replication over-firing by impairing Geminin ubiquitination and triggers replication catastrophe upon ATR inhibition” (Nature Communications, 2021).
